The text below walks through data of EP0479665A2, “1,4-Dihydropyridine derivatives, method for preparing the same and use thereof” (TEIKOKU CHEMICAL INDUSTRIES CO., LTD., priority 1990, dated 1992).

Marks after values point to notes of the source that are not given here.

Data set [1] is described as follows: in vivo. Particulars: oral, after a fast, 4-week old mouse, medium DMSO, read-out: Toxicity (LD50). The protocol:
After a fast, a ddy-mouse (4-week old) was orally given a solution obtained by dissolving and/or suspending the compound in each Example 18, 19 and 20 in dimethylsulfoxide (DMSO) or carboxymethylcellulose (CMC). The value of LD50 was calculated from the mortality.

The test system of data set [2] is spontaneously hypertensive rats. In words: Antihypertensive action regarding administration amount, tail-cuff method. The class given is in vivo. Particulars: time for recovery to 50 % of maximal effect (index of persistence); oral dose 10 mg/kg. The procedure:
Ten spontaneously hypertensive rats (10 - 20 week old) were used for this test. Blood pressure was measured in accordance with tail-cuff method by employing a blood pressure gauge for small animals UR-1000 (manufactured by Ueda Works, Ltd., Japan). […] The amount of each compound required for lowering the blood pressure of 40 mmHg decrease in blood pressure was calculated from the relationship between the administration amount and the blood pressure after adiministration (lowermost blood pressure). This amount was defined as ED-40 mmHg for serving as an index of antihypertensive action. Tz was shown as the time required for recovery to 50 % of maximal […]. This value was used for an index of persistence.

Take `COC(=O)C1=C(C)NC(C)=C(C(=O)OC)C1c1ccccc1[N+](=O)[O-]` [Nifedipine, nifedipine, reference compound]: the LD50 in data set [1] was 100 mg/kg. Further, the “T1/2(dose)” value in data set [2] is 4.0 hr(10mg/kg)*.
